Literature values, collected in PMC10252203, “Tyrosinase Inhibitory Peptides from Enzyme Hydrolyzed Royal Jelly: Production, Separation, Identification and Docking Analysis” (Foods, 2023).
Converted amounts (≈) assume the structure as drawn. Structures were worked out from names or drawings and are uncertain.

By UniProt entry, the sequences of proteins in these tests, tags left out. Residues count along the entry.
UniProt C7FF04, 2-392 limits assumed: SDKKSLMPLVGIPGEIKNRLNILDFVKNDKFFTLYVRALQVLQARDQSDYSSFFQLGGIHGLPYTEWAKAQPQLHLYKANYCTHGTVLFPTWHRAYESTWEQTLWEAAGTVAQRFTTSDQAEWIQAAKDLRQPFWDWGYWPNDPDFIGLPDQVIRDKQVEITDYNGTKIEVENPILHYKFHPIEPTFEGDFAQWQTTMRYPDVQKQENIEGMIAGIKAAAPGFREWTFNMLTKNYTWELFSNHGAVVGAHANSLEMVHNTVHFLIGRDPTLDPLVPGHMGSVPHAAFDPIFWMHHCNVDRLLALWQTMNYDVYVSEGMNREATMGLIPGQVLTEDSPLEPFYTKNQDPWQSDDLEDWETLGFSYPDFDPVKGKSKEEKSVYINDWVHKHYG

Biological target: TYR (Agaricus bisporus, UniProt C7FF04)
Conditions: ref [48]; cited from earlier work

CC(C)C[C@H](NC(=O)[C@@H](N)C(C)C)C(=O)N[C@H](C(=O)O)[C@@H](C)O
IC50 (TYR inhibition), literature: 5000 µg/mL (≈ 15.1 mM)
